According to US20220356475:
No signal at the amounts used counts as a negative.

Sequences of proteins named here, by UniProt entry; tags and fusion partners are left off. Residues count along the entry.
UniProt P30530, 26-894: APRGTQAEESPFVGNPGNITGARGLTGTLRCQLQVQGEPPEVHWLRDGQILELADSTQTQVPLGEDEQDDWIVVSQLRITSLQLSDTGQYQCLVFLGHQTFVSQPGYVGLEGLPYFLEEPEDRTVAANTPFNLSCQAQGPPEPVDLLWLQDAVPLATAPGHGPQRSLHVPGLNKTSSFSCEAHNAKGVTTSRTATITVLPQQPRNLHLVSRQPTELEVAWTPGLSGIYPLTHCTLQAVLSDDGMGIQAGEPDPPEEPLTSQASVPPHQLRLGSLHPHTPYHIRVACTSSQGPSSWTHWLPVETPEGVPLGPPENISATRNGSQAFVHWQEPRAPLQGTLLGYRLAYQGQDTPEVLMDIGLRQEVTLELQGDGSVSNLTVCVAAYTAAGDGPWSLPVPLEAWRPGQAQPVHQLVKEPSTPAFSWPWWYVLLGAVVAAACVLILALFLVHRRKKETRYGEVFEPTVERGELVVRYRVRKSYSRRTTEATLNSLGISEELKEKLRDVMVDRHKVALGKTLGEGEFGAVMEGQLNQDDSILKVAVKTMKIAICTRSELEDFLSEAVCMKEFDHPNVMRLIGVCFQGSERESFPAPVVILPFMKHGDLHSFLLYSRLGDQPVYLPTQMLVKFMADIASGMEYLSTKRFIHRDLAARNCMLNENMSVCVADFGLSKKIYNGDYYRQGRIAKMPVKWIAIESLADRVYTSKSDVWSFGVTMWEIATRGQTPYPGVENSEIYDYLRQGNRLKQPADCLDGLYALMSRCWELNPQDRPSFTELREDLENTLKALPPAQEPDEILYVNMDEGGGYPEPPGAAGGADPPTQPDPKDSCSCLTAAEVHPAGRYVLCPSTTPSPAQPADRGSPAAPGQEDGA

Biological target: AXL receptor tyrosine kinase (UniProt P30530)
Assay: activity in cells
Details: in one embodiment pyrimidines 2'-F and/or purines 2'-OMe, protein on the cell surface

| Sequence | functional effect of the aptamer (C12 alkyl linker between SEQ 1 and SEQ 2, 400 nM, miR-148b raised in AXL+ cells but not in AXL- SKBR3 cells (qRT-PCR, 48 h), indirect evidence of binding) | functional effect of the aptamer (C12 alkyl linker between SEQ 6 and SEQ 2, no change in miR-148b levels in AXL+ cells, scrambled sequence stated unable to bind and activate AXL, dose not given here) |
| --- | --- | --- |
| AUGAUCAAUCGCCUCAAUUCGACAGGAGGCUCACGUACAUUCUAGAUAGCC / AGUCAGUGCAUCACAGAACUUUGUCUUU / AGGUGAAGUUCUGUUAUACACUCAGGCUGGCUAUCUAGAAUGUAC | active | – |
| GGCGCUAGAACCUUCUAAGCGAAUACAUUACCGCGUACAUUCUAGAUAGCC / AGUCAGUGCAUCACAGAACUUUGUCUUU / AGGUGAAGUUCUGUUAUACACUCAGGCUGGCUAUCUAGAAUGUAC | – | not active |
